Test results reported in PubChem BioAssay AID493014 (National Center for Advancing Translational Sciences (NCATS), 2011).
Some of the results follow. Further columns of the screen follow, without active or inactive calls. Compounds called inactive in the main read-out are mostly missing here. Potencies come from curve fits of mixed quality, noted in brackets.

Assay: qHTS Assay to Find Inhibitors of Chronic Active B-Cell Receptor Signaling
Conditions: ABC-DLBCL IkBa-CBG/CBR reporter, luminescence ratio (green luciferase fused to IkBa over red control in TMD8 lymphoma cells), 4 h
Summary of the method: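 Doxycycline induced both beetle luciferases in TMD8 lymphoma cells; IKK-driven degradation limits the IkappaBalpha-fused green signal, while red luminescence normalises for cell number and nonspecific effects. Compounds tested up to 46 uM, 4 hrs.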

[1] = measured here: CBR red luminescence, cell number
[2] = measured here: IkBa-CBG green luminescence

Row | Compound | AC50 [1] | AC50 [2]
1 | Cc1ccc(O)c(C=Nc2cc(C)ccc2O)c1 | 20.6 µM [rising, partial curve, poor fit] | 
2 | COc1ccc(C(=O)NCCc2c[nH]c3ccccc23)cc1S(=O)(=O)N1CCCCC1C (stereo not drawn) | 0.259 µM [falling, single point] | 
3 | COc1cc2c(cc1OC)C(C(=O)N1CCCC1)C(c1ccccc1F)N(C)C2=O (stereo not drawn) | 32.6 µM [falling, single point] | 
4 | N#CCC(=O)N/N=C\c1cccc(OC/C=C/c2ccccc2)c1 | 10 µM [falling, partial curve, poor fit] | 
5 | Cc1cccc(-c2noc(CN(C(=O)c3ccc(Br)o3)C(C)C)n2)c1 | 0.092 µM [rising, full curve, poor fit] | 
6 | CC(C)CCn1c(Sc2nc3ccccc3s2)nc2c1c(=O)[nH]c(=O)n2C | 20 µM [falling, single point] | 
7 | C=CCn1c(SCc2ccc3nonc3c2)nnc1-c1cccs1 | 6.51 µM [falling, single point] | 
8 | O=S(=O)(NC12CC3CC(CC(C3)C1)C2)c1ccc(F)cc1 | 20.6 µM [falling, partial curve] | 
9 | Nc1cc(S(=O)(=O)c2ccc(O)c(N)c2)ccc1O | 11.2 µM [rising, partial curve] | 
10 | Nc1n[nH]c2c1C1(CCCCC1)Cc1ccccc1-2 | 12.6 µM [falling, partial curve, poor fit] | 
11 | C(=N\Nc1nc2ccccc2[nH]1)/c1c[nH]c2ccccc12 | 8.2 µM [falling, partial curve] | 6.51 µM [falling, partial curve, poor fit]
12 | CC(C)[C@H](NC(=O)N1CCn2c1nc1ccccc12)C(=O)N[C@H](Cc1ccccc1)C(=O)O | 22.4 µM [falling, single point] | 
13 | CC(=O)c1ccc(NC(=O)C(C)Sc2nnnn2C)cc1 (stereo not drawn) | 3.98 µM [rising, partial curve, poor fit] | 
14 | CC1=NN(c2ccc(C(=O)O)c(N)c2)C(=O)C1 | 12.6 µM [falling, partial curve, poor fit] | 
15 | CC(=O)N(c1nnc(-c2cccc(C)c2)s1)C1CCCC1 | 5.01 µM [rising, full curve] | 
16 | Cc1ccc(C(=O)N(CCC2=CCCCC2)c2c(N)n(Cc3ccccc3)c(=O)[nH]c2=O)o1 | 10.3 µM [falling, single point] | 
17 | CCOc1ncccc1C(=O)OCC(=O)c1ccc(OC)c(OC)c1 | 11.2 µM [falling, partial curve] | 
18 | Cc1c(C(=O)N(C)Cc2ccccc2)oc2c(Cl)cccc12 | 35.5 µM [rising, single point] | 
19 | CCOC(=O)N1CCN(Cc2ccc(O)c3ncccc23)CC1 | 35.5 µM [rising, single point] | 
20 | O=C(Nc1cccnc1)c1ccc(Cl)c(S(=O)(=O)N2CCCCCC2)c1 | 20.6 µM [falling, partial curve, poor fit] | 
21 | CCn1ncc(C2=NOC(C(=O)NCC(C)C)C2)c1C (stereo not drawn) | 0.092 µM [rising, full curve, poor fit] | 
22 | Cc1csc(CNC(=O)CC2C(=O)NCCN2Cc2ccc(F)cc2Cl)n1 (stereo not drawn) | 3.98 µM [falling, full curve, poor fit] | 

Row | Compound | AC50 [1] | AC50 [2]
23 | Nc1ncnc(NCc2ccccc2)c1[N+](=O)[O-] | 6.51 µM [rising, single point] | 
24 | COc1cc(OC)c2c(-c3ccccc3)cc(=O)oc2c1C(CC(=O)N1CCN(c2ccccc2)CC1)c1ccc2c(c1)OCO2 (stereo not drawn) | 6.31 µM [rising, single point] | 
25 | CCCn1cc(NC(=O)C2CC(c3cccc(Br)c3)=NO2)cn1 (stereo not drawn) | 1.16 µM [rising, full curve, poor fit] | 
26 | CCc1ccc(NC(=O)CSC2=C(C#N)C(c3ccco3)C3=C(CCCC3=O)N2)cc1 (stereo not drawn) | 12.6 µM [falling, single point] | 
27 | COc1cccc(Nc2ncnc3ccccc23)c1 | 20.6 µM [falling, single point] | 
28 | CN(C(=O)c1ccccc1Cl)C1CCCCC1 | 0.259 µM [falling, full curve, poor fit] | 
29 | COc1ccc(Cl)cc1NC(=O)Cn1nnc(C(=O)NCCc2ccc(OC)c(OC)c2)c1N | 6.31 µM [rising, single point] | 
30 | Cc1ccc(N2C(=O)C3C4C=CC(C4)C3C2=O)cc1 (stereo not drawn) | 35.5 µM [rising, partial curve, poor fit] | 
31 | CCN1C(=O)/C(=C2\SC(=S)N(CCCOC)C2=O)c2ccccc21 | 3.55 µM [falling, partial curve, poor fit] | 
32 | O=C(CN1CCCCCC1)N/N=C/c1ccc(Cl)c(Cl)c1 | 2.59 µM [rising, partial curve, poor fit] | 
33 | Cc1c(Cl)cccc1NC(=O)NC1CCCCC1 | 6.31 µM [rising, single point] | 
34 | O=C(Nc1ccccc1)Nc1nccs1 | 35.5 µM [falling, single point] | 
35 | Cc1n[nH]c(=O)n1-c1ccc(Oc2ccccc2)cc1 | 17.8 µM [rising, partial curve, poor fit] | 
36 | O=C(CSc1nnc(CNC(=O)c2c(F)cccc2F)o1)NCc1ccccc1Cl | 0.112 µM [falling, full curve, poor fit] | 
37 | O=C1c2cccc(OCC(=O)N3CCCc4ccccc43)c2CCN1Cc1cccnc1 | 35.5 µM [falling, single point] | 
38 | c1ccc(-c2nc(NCCCn3ccnc3)c3oc4ccccc4c3n2)cc1 | 14.1 µM [falling, partial curve] | 
39 | COc1ccc(-c2c(C#N)sc(C(N)=O)c2-c2ccc(OC)cc2)cc1 | 31.6 µM [falling, single point] | 15.8 µM [rising, partial curve, poor fit]
40 | Cc1cccc(OCC(=O)N(Cc2ccc(N(C)C)cc2)C2CCS(=O)(=O)C2)c1 (stereo not drawn) | 35.5 µM [falling, single point] | 
41 | O=C(CSc1ncnc2c1oc1ccccc12)N1CCCc2ccccc21 | 0.731 µM [rising, full curve, poor fit] | 
42 | COCCN(C(=O)COC(=O)c1c(-c2ccccc2)noc1C)c1c(N)n(Cc2ccccc2)c(=O)[nH]c1=O | 11.2 µM [falling, partial curve, poor fit] | 
43 | CCOC(=O)c1sc2nc(CC(=O)OC)nc(NCCN(CC)CC)c2c1C | 29.1 µM [falling, partial curve, poor fit] | 
44 | CC(C)Cc1cc(C(=O)Nc2ccc3c(c2)OCO3)no1 | 16.4 µM [falling, single point] | 

Individual results from the list:
Value of COc1ccc(Cl)cc1NC(=O)Cn1nnc(C(=O)NCCc2ccc(OC)c(OC)c2)c1N under AC50 [1]: 6.31 µM [rising, single point]
Value of CCCn1cc(NC(=O)C2CC(c3cccc(Br)c3)=NO2)cn1 (stereo not drawn) under AC50 [1]: 1.16 µM [rising, full curve, poor fit]
Value of O=C(Nc1ccccc1)Nc1nccs1 under AC50 [1]: 35.5 µM [falling, single point]
Value of COc1ccc(-c2c(C#N)sc(C(N)=O)c2-c2ccc(OC)cc2)cc1 under AC50 [1]: 31.6 µM [falling, single point]
Value of CC(C)Cc1cc(C(=O)Nc2ccc3c(c2)OCO3)no1 under AC50 [1]: 16.4 µM [falling, single point]

Following part.

Row | Compound | AC50 [1] | AC50 [2]
45 | O=C(Nc1ccccc1)Nc1ccc2nnsc2c1 | 10 µM [falling, partial curve, poor fit] | 
46 | COc1ccc(C2CC(c3ccccc3)=NN2C(=O)COC(=O)c2cccc(N)c2)cc1 (stereo not drawn) | 3.66 µM [falling, single point] | 
47 | Cc1nc(/N=C(\N)NC(=O)NC2CCCCC2)nc2ccccc12 | 14.1 µM [falling, single point] | 
48 | Cc1ccc(C(=O)Cn2c(=N)n(N)c3ccccc32)cc1 | 31.6 µM [falling, partial curve, poor fit] | 
49 | N#CNC(=Nc1ccccc1F)SCc1ccc(C(=O)O)cc1 | 35.5 µM [falling, single point] | 
50 | CC1=CC(C)(C)N2C(=O)C3(NCCc4c3[nH]c3ccccc43)c3cc(C)cc1c32 (stereo not drawn) | 35.5 µM [falling, single point] | 
51 | Cc1cc(-c2ccc([N+](=O)[O-])cc2)nc2ccccc12 | 11.2 µM [rising, partial curve] | 
52 | CC(C)NC(=O)CC1OC(=O)c2ccccc21 (stereo not drawn) | 7.31 µM [rising, partial curve, poor fit] | 
53 | CCCCCCNc1c(C(=O)OCC)c(=O)[nH]c2ccccc12 | 28.2 µM [falling, single point] | 
54 | COc1cccc(NC(=O)CNC(=O)c2ccc([N+](=O)[O-])cc2)c1 | 35.5 µM [rising, single point] | 
55 | O=C(COc1ccc([N+](=O)[O-])cc1)N/N=C/c1ccccn1 | 5.62 µM [rising, full curve, poor fit] | 
56 | O=C(c1cccc(C(F)(F)F)c1)C1CCCN(C(=O)CN2CCOC2=O)C1 (stereo not drawn) | 20 µM [rising, single point] | 
57 | COc1ccc(NC(=O)CSc2nc(N)c(C(=O)Nc3ccc(N(C)C)cc3)s2)cc1 |  | 14.6 µM [falling, partial curve, poor fit]
58 | Cc1nc(-c2cccc(NC(=O)c3cccs3)c2)cs1 | 29.1 µM [falling, single point] | 
59 | O=C(c1ccc(-c2ccccc2Cl)o1)N1CCC1 | 3.66 µM [rising, partial curve, poor fit] | 
60 | Cc1ccc(NC(=S)NC(NC(=O)c2ccccc2C)C(Cl)(Cl)Cl)c(C)c1 (stereo not drawn) | 2.51 µM [falling, full curve, poor fit] | 
61 | COC(=O)/C=C/S(=O)(=O)c1ccc(NC(C)=O)cc1 | 7.08 µM [falling, partial curve] | 
62 | CC(C)(O)CCC(C)(C)O | 6.51 µM [falling, single point] | 
63 | CCN(CC)C(=O)COc1ccc(/C(C)=N/NC(=O)c2ccccc2O)cc1 | 3.55 µM [falling, full curve] | 
64 | N=c1c2c(ncn1CCCO)Oc1ccc3ccccc3c1C2c1ccccc1 (stereo not drawn) | 17.8 µM [falling, single point] | 
65 | Cc1ccc(CCC(=O)Nc2ncc(Cc3cc(Cl)ccc3Cl)s2)o1 | 20.6 µM [rising, partial curve] | 5.8 µM [falling, full curve]
